The experiment is described as follows: qHTS Assay for Lipid Storage Modulators in Drosophila S3 Cells.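 As to cell number change: cells counted by Cell Tracker Red CMTPX staining in the red channel.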 As to conditions: BODIPY lipid droplet fluorescence, 18-24 h; for cell number change: measured here: cell count max response, cells fed with added oleic acid. Summed up: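 Drosophila S3 cells loaded with oleic acid (400 uM, as added) and compounds at several concentrations; lipid droplets imaged by 488-nm laser-scanning cytometry, 500–530 nm intensity and object ratio to cell channel. Percent activity normalized to 20 uM Triacsin C.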

[1] abbreviates: measured here: lipid fluorescence (Fed channel) AC50, cells fed with added oleic acid.
[2] abbreviates: measured here: cell number channel AC50, cells fed with added oleic acid.

This is one part of the list. Further columns of the screen follow, without active or inactive calls. The list favours compounds with an active or inconclusive main result. Words in brackets tell the shape of the fitted curve; partial curves, single points and poor fits give uncertain potencies.

The values that follow come from PubChem BioAssay AID2685 (National Center for Advancing Translational Sciences (NCATS), 2010).

What is called AC50 is the midpoint of the concentration-response curve, whichever way the signal moves. High values mean weaker potency, low ones greater potency.

In the case of `O=C(COc1ccc(Br)cc1Cl)NC1CCN(Cc2ccccc2)CC1`, the AC50 under setting [1] is 29100 nM [rising, single point].

With `CNC(=O)c1c(NC(=O)C2=COCCO2)sc2c1CCC(C)C2` (stereo not given), the cell number change was -9.83%. In addition, under setting [1], the AC50 was 29100 nM [falling, single point].

Regarding `O=C(NCCC1CCCCN1S(=O)(=O)c1ccccc1)C(=O)NCc1ccc(F)cc1` (stereo not given), the cell number change is -9.42%. Moreover, under setting [1], the AC50 was 29100 nM [falling, single point].

Turning to `CC(C)NC(=O)NC(=O)COC(=O)c1ccc(S(=O)(=O)Nc2ccccc2)cc1`, the cell number change is -44.9%. The AC50 under setting [2] was 920 nM [falling, full curve, poor fit]. Besides, the AC50 under setting [1] was 1460 nM [falling, full curve].

For the compound `Cc1cccc(C(=O)N2CCN(Cc3nc4sc5c(c4c(=O)[nH]3)CCCC5)CC2)c1`, the cell number change was determined as 21.8%. For the same compound, the AC50 under setting [1] was 116 nM [rising, single point].

With `CCn1c2ccccc2c2cc(C3C(C#N)=C(C)NC(C)=C3C#N)ccc21`, the cell number change was -17%. For the same compound, the AC50 under setting [1] is 1030 nM [rising, partial curve].

With `CCOCCCNCc1cccc(OC)c1`, the cell number change was determined as 6.34%. The AC50 under setting [1] is 5.17 nM [falling, full curve, poor fit].

Regarding `CC(NC(=O)NCCCC(=O)O)(C(F)(F)F)C(F)(F)F`, under setting [1], the AC50 is 6510 nM [falling, single point].

For the compound `CC(C)NC(=O)c1ccccc1NC(=O)CN(c1ccc2c(c1)OCO2)S(C)(=O)=O`, the AC50 under setting [1] was 580 nM [rising, single point].

For `CC(=O)c1cn(CC(=O)Nc2ccccc2C)c2ccccc12`, the cell number change was -7.47%. For the same compound, the AC50 under setting [1] is 29100 nM [falling, single point].

For `Cc1ccc(CNC(=O)C2CC(=O)N(c3ccc(OCC(=O)N4CCCC4)cc3)C2)cc1` (stereo not given), the cell number change is -24.5%. Besides, the AC50 under setting [1] was 29100 nM [falling, single point].

In the case of `COc1ccccc1-c1noc2ncnc(Nc3cccc(C)c3)c12`, the cell number change came out at 7.78%. Also, the AC50 under setting [2] was 164 nM [rising, full curve, poor fit]. The AC50 under setting [1] is 116 nM [rising, full curve, poor fit].

Take `O=C1CCC(C(=O)Nc2cccc(S(=O)(=O)N3CCOCC3)c2)N1` (stereo not given): the cell number change is 24.3%. Under setting [1], the AC50 is 580 nM [falling, single point].

As to `Cc1c(NC(=O)c2c(N)sc3c2CCCC3)c(=O)n(-c2ccccc2)n1C`, the cell number change is -5.12%. Under setting [2], the AC50 is 6510 nM [falling, partial curve, poor fit]. In addition, the AC50 under setting [1] was 3260 nM [falling, single point].

In the case of `CC(C)N(C(=O)CSc1nnc(NC(=O)Cc2cccs2)s1)C(C)C`, the cell number change was -101%. Also, the AC50 under setting [1] was 29100 nM [falling, single point].

As to `Cc1cc(NC(=O)CCCC(=O)NCc2cccs2)no1`, the cell number change is 3.4%. In addition, the AC50 under setting [1] was 29100 nM [falling, single point].

On to `O=C(NC1CCCC1)C(NS(=O)(=O)c1ccc(Br)s1)c1ccccc1` (stereo not given), for which the cell number change is 3.21%. Also, under setting [2], the AC50 is 4110 nM [rising, single point]. Further, the AC50 under setting [1] is 4110 nM [rising, full curve, poor fit].

With `CCOC(=O)C1(Cc2ccccc2C)CCCN(C(=O)c2ccc(OC)o2)C1` (stereo not given), the cell number change was -34.7%. The AC50 under setting [2] is 16400 nM [falling, single point]. The AC50 under setting [1] is 580 nM [rising, single point].

As for `CCn1c(CSc2nnc(-c3cccnc3)n2-c2ccccc2C)nc2cc(C(=O)O)ccc21`, the AC50 under setting [2] was 3660 nM [falling, partial curve].

Turning to `COc1ccccc1N1CCN(S(=O)(=O)c2ccc(Cl)s2)CC1`, the cell number change turned out to be 2.64%.

On to `CCCCc1cc2ccccc2c(OCCN(C)C)n1`, for which the cell number change is 39.5%.

With `O=C(NCC(c1ccco1)N1CCCCC1)c1cccc(S(=O)(=O)Nc2ccccc2Cl)c1` (stereo not given), the cell number change is 14.8%. Further, the AC50 under setting [1] is 29100 nM [rising, single point].

For `Cc1ccc(OCC(=O)N/N=C2\CC(=O)CC(C)(C)C2)c(Br)c1`, the cell number change was -2.55%. For the same compound, under setting [1], the AC50 is 23100 nM [rising, single point].

For the compound `N=C1C(=O)OCC1c1ccccc1NC(=O)c1ccccc1` (stereo not given), the AC50 is 1160 nM [rising, full curve] under setting [2] and 1030 nM [falling, full curve] under setting [1].

`Cc1nn(CC(=O)O)c2ccccc12`: the cell number change was determined as 4.67%.

As for `COc1cccc(N/C=C/C(=O)c2ccc(OC)c(OC)c2)c1`, the cell number change is -33.3%. For the same compound, the AC50 under setting [1] was 29100 nM [falling, single point].

As to `Nn1c(SCc2ccccn2)nncc1=O`, the cell number change is -4.07%.

Turning to `CC(C)C[C@@]12C(=O)N(c3cccc(F)c3)C(=O)N1[C@H](c1ccc(Cl)cc1)[C@@H]1C(=O)N(C3CCCCC3)C(=O)[C@@H]12`, the cell number change came to 4.16%. Also, the AC50 under setting [2] is 3660 nM [falling, single point]. Under setting [1], the AC50 is 580 nM [falling, single point].

For `Nc1nnc2c(n1)CCCC2`, the cell number change came to 18.6%. Further, the AC50 under setting [1] is 1030 nM [falling, full curve].

As to `O=C(NCCNC(=O)c1cc(Cl)ccc1Cl)c1ccco1`, the cell number change was 1.67%.

Regarding `Cc1noc(C)c1CSc1ncnc2sc3c(c12)CCC3`, the cell number change was 16.2%. In addition, the AC50 under setting [1] is 130 nM [rising, full curve, poor fit].

Consider `CCN(N)C(=S)Nc1ccc(F)cc1`, for which the cell number change came to 24.3%. Moreover, the AC50 under setting [2] was 116 nM [rising, full curve, poor fit].

As to `COc1cc(C(=O)N(C)CCOc2ccc(C)cc2)ccc1OC1CCN(C(C)=O)CC1`, the cell number change was -16.8%.

With `CCN(CC)S(=O)(=O)c1cccc(-c2n[nH]c(=S)n2Cc2ccccc2)c1`, the cell number change was 12.7%.

For `Cc1cc(C)nc(NC(=O)c2c(C(=O)O)noc2C)n1`, the cell number change was 10.7%. Also, the half-maximal activity concentration (AC50) under setting [2] was 366 nM [falling, full curve].

In the case of `CCn1c(Cc2ccc(OC)cc2)nnc1SCC(=O)N1CCN(c2ccccc2)CC1`, the cell number change worked out at 40.6%. Also, the AC50 under setting [2] is 9200 nM [rising, partial curve].

Consider `O=C(CCc1nnc(CCC2CCCCC2)o1)NCc1ccon1`, for which the cell number change was -16.7%.

With `Cc1cccc(-n2c(O)c(C=Nc3ccc4c(c3)OCO4)c3ccccc3c2=O)n1`, the cell number change is -0.705%.

As to `COc1cc(/C=C(\C#N)c2nn(CCO)c(N)c2C#N)cc(OC)c1OC`, the cell number change is 11.4%. Moreover, the AC50 under setting [1] is 184 nM [rising, full curve].

As for `CCOc1ccccc1NC(=O)c1ccc2c(c1)C(=O)N(C(C)(C)C)C2=O`, the cell number change was 9.49%.

As for `Cc1cc(C)n(CC(=O)c2ccc(Cl)cc2)n1`, the cell number change is 1.9%. For the same compound, under setting [1], the AC50 was 2590 nM [rising, full curve, poor fit].

On to `O=C(CCS(=O)(=O)c1cccs1)Nc1ccc(C(=O)NCc2ccc(F)cc2)cc1`, for which the AC50 under setting [1] is 130 nM [falling, full curve, poor fit].

Consider `COc1ccc(CCNC(=O)CN(c2ccc(OC)cc2)S(C)(=O)=O)cc1`, for which the cell number change stood at 24.8%.

In the case of `C/C(=C\C(=O)c1ccc(C)o1)Nc1ccc2c(c1)OCO2`, the cell number change came to 1.03%. Besides, the AC50 under setting [1] was 580 nM [rising, partial curve].

As for `Brc1ccc(C2Nc3cccc4cccc(c34)N2)o1`, the cell number change is 3.13%. Besides, the AC50 under setting [1] was 92 nM [rising, full curve, poor fit].

In the case of `CC(C)(C)c1ccc(OCCn2nc(C(=O)O)c3ccccc3c2=O)cc1`, the cell number change was -2.63%.

Regarding `Cc1cc(=O)oc2cc(NC(=O)C(CCCN=C(N)N)NC(=O)OCc3ccccc3)ccc12` (stereo not given), the AC50 under setting [1] is 517 nM [rising, full curve, poor fit].

With `Cc1ccc(C2C(C#N)=C(N)SC(N)=C2C#N)c(C)c1`, the cell number change was -31.3%. For the same compound, the AC50 under setting [2] was 25900 nM [falling, single point]. Moreover, the AC50 under setting [1] was 20600 nM [falling, single point].

On to `Cc1oc(-c2ccccc2F)nc1CS(=O)(=O)CC(=O)NCCCc1ccccc1`, for which the cell number change came to 64.7%. Further, the AC50 under setting [2] is 29100 nM [rising, single point]. Under setting [1], the AC50 is 7310 nM [rising, partial curve].

`CSc1ccc(CCNC(=O)Cn2ncc3c([nH]c4ccccc43)c2=O)cc1`: the cell number change is -22.1%. In addition, the AC50 under setting [1] is 11600 nM [rising, partial curve, poor fit].

Turning to `Cc1nc(SCC(=O)Nc2cc(S(=O)(=O)N3CCOCC3)ccc2Cl)nc(C)c1C`, the cell number change came out at 22.6%. In addition, the AC50 under setting [2] is 259 nM [rising, full curve, poor fit]. Moreover, the AC50 under setting [1] is 116 nM [rising, full curve, poor fit].

As for `CCSc1nnc(-c2ccccc2N=Cc2c(C)[nH]n(-c3ccccc3)c2=O)c(=O)[nH]1`, the cell number change worked out at 15.8%. The AC50 under setting [1] was 731 nM [rising, single point].

In the case of `Cc1ccc(C)c(NC(=O)c2ccc(N(C)S(C)(=O)=O)cc2)c1`, under setting [1], the AC50 was 146 nM [rising, full curve, poor fit].

Regarding `Cc1nc2ccccc2cc1C(=O)N/N=C/c1ccccc1[N+](=O)[O-]`, the cell number change amounted to 12.8%. Moreover, the AC50 under setting [2] was 2310 nM [rising, single point].

Consider `Cc1cccc(NC(=O)c2onc3c2CCCC3)c1C`, for which the cell number change is -19.2%. For the same compound, the AC50 under setting [2] is 116 nM [rising, full curve, poor fit]. For the same compound, the half-maximal activity concentration (AC50) under setting [1] is 103 nM [rising, full curve, poor fit].

For the compound `C/C(=N\NC(=O)c1ccc(Cl)cc1)c1ccc(Br)s1`, the cell number change is -1.63%. In addition, under setting [2], the AC50 is 366 nM [rising, single point].

For the compound `Oc1ccc(/C=N/Nc2ccc(C(F)(F)F)cn2)cc1O`, the cell number change is -37.6%. Besides, under setting [2], the AC50 was 18400 nM [falling, single point].

As to `COc1ccc(/C=C/C(=O)N2CCN(c3ccccn3)CC2)cc1OC`, the AC50 under setting [1] was 23100 nM [falling, single point].

For the compound `Cc1cc(C)nc(NS(=O)(=O)c2ccc(NC(=O)C3CC3)cc2)n1`, the cell number change is 18.4%. Also, the AC50 under setting [1] was 7940 nM [rising, partial curve, poor fit].

On to `Fc1ccc(Nc2ncnc3ccccc23)cc1`, for which the cell number change is -0.293%.

Regarding `COC(=O)c1ccccc1NC(=O)N1CCN(S(=O)(=O)c2ccc(Cl)cc2)CC1`, the cell number change was -11.1%. Also, the AC50 under setting [1] was 1460 nM [falling, partial curve].

In the case of `CCSCc1nnc(SCC(=O)Nc2ccc(OC)cc2)n1C`, the cell number change amounted to 16%. In addition, the AC50 under setting [1] was 32600 nM [rising, single point].

Take `COc1ccc(COC(=O)N/C=C/c2ccco2)cc1`: the cell number change was found to be 24.5%. Moreover, the AC50 under setting [1] was 1030 nM [falling, single point].
